The structures appear in SMILES notation.

This series can be described thus: UV photoactivation in d4-methanol followed by 19F NMR (diazirine / linear diazo / carbene insertion product). The class given is physicochemical. The note with it: UV irradiation.
With `OCc1ccc(C2(C(F)(F)F)N=N2)cn1` [compound 1, (5-(3-(trifluoromethyl)-3H-diazirin-3-yl)pyridin-2-yl)methanol], the “peak share of linear diazo intermediate during UV activation” value is listed as “about 30%”. With `OCc1ccc(C2(C(F)(F)F)N=N2)cc1` [compound 3, (4-(3-(trifluoromethyl)-3H-diazirin-3-yl)phenyl)methanol, reference compound] the entry was “about 30%”; with `OCc1ncc(C2(C(F)(F)F)N=N2)cn1` [compound 2, (5-(3-(trifluoromethyl)-3H-diazirin-3-yl)pyrimidin-2-yl) methanol], “about 30%”.

Source of the values: patent publication US10067136B1, “Photoactivatable probes and uses thereof” (University of South Florida, priority 2016, dated 2018).
